Results as given in paper doi:10.1101/2020.10.05.325951.

Amino acid sequences for entries named in this document (tags omitted).
UniProt Q62083: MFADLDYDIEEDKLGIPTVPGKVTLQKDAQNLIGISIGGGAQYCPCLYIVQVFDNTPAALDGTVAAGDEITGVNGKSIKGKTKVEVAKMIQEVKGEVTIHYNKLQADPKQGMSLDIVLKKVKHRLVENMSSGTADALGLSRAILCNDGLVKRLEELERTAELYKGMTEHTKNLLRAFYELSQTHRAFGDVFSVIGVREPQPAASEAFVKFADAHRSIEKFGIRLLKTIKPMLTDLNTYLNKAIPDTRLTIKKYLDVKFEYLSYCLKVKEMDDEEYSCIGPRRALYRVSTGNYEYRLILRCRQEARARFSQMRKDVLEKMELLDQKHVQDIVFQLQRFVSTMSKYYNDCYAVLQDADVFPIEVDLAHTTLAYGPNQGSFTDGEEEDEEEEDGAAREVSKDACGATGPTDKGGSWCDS

Target: Myc-BioID2-PICK1 (mouse (printed as mPICK1)) (UniProt Q62083)
Assay: proximity labelling

binding: binds
B1: syntaxin 6 (protein, UniProt Q63635 1-255)
chain: MSMEDPFFVVKGEVQKAVNTAQGLFQRWTELLQGPSAATREEIDWTTNELRNNLRSIEWDLEDLDETISIVEANPRKFNLDATELSIRKAFITSTRQIVRDMKDQMSASSVQALAERKNRQALLGDSSSQNWDAGVTDRYGRLDRELQLANSHFIEEQQAQQQLIVEQQDEQLELVSGSIGVLKNMSQRIGGELEEQAVMLDDFSHELESTQSRLDNVMKKLAKVSHMTSDRRQWCAIAILFAVLLVVLTLFLVL

Results are given in words; binding and its absence hold for the method and conditions named. Binding seen in cells or lysates may run through a third protein. These calls come from enrichment with a bait or labelling near it, and not all partners need be listed.
